The target in this assay is STAT1 (total and phosphorylated), HEK293T (human (endogenous in HEK293T)) (UniProt P42224). The assay is described as follows: co-IP.

Amino acid sequences for entries named in this document (tags omitted).
UniProt P42224: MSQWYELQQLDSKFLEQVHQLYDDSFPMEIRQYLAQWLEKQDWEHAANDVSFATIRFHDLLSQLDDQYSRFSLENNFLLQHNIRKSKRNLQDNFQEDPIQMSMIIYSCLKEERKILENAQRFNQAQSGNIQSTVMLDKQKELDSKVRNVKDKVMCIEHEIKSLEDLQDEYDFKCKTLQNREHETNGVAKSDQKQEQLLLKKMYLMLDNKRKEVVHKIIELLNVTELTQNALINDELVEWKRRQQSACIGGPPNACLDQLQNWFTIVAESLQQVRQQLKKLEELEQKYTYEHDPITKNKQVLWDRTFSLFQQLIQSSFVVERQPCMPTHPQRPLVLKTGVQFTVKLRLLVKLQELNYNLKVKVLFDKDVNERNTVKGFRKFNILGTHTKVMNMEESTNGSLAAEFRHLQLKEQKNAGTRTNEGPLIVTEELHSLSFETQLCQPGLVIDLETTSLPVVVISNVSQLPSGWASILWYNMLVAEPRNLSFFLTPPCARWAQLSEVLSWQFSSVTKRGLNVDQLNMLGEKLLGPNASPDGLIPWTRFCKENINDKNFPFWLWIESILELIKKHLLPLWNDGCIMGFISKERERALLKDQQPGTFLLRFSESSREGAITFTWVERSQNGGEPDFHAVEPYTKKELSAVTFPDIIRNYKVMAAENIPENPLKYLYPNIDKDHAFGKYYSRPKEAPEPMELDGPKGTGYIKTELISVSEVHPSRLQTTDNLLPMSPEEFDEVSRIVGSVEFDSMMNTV
UniProt Q92793: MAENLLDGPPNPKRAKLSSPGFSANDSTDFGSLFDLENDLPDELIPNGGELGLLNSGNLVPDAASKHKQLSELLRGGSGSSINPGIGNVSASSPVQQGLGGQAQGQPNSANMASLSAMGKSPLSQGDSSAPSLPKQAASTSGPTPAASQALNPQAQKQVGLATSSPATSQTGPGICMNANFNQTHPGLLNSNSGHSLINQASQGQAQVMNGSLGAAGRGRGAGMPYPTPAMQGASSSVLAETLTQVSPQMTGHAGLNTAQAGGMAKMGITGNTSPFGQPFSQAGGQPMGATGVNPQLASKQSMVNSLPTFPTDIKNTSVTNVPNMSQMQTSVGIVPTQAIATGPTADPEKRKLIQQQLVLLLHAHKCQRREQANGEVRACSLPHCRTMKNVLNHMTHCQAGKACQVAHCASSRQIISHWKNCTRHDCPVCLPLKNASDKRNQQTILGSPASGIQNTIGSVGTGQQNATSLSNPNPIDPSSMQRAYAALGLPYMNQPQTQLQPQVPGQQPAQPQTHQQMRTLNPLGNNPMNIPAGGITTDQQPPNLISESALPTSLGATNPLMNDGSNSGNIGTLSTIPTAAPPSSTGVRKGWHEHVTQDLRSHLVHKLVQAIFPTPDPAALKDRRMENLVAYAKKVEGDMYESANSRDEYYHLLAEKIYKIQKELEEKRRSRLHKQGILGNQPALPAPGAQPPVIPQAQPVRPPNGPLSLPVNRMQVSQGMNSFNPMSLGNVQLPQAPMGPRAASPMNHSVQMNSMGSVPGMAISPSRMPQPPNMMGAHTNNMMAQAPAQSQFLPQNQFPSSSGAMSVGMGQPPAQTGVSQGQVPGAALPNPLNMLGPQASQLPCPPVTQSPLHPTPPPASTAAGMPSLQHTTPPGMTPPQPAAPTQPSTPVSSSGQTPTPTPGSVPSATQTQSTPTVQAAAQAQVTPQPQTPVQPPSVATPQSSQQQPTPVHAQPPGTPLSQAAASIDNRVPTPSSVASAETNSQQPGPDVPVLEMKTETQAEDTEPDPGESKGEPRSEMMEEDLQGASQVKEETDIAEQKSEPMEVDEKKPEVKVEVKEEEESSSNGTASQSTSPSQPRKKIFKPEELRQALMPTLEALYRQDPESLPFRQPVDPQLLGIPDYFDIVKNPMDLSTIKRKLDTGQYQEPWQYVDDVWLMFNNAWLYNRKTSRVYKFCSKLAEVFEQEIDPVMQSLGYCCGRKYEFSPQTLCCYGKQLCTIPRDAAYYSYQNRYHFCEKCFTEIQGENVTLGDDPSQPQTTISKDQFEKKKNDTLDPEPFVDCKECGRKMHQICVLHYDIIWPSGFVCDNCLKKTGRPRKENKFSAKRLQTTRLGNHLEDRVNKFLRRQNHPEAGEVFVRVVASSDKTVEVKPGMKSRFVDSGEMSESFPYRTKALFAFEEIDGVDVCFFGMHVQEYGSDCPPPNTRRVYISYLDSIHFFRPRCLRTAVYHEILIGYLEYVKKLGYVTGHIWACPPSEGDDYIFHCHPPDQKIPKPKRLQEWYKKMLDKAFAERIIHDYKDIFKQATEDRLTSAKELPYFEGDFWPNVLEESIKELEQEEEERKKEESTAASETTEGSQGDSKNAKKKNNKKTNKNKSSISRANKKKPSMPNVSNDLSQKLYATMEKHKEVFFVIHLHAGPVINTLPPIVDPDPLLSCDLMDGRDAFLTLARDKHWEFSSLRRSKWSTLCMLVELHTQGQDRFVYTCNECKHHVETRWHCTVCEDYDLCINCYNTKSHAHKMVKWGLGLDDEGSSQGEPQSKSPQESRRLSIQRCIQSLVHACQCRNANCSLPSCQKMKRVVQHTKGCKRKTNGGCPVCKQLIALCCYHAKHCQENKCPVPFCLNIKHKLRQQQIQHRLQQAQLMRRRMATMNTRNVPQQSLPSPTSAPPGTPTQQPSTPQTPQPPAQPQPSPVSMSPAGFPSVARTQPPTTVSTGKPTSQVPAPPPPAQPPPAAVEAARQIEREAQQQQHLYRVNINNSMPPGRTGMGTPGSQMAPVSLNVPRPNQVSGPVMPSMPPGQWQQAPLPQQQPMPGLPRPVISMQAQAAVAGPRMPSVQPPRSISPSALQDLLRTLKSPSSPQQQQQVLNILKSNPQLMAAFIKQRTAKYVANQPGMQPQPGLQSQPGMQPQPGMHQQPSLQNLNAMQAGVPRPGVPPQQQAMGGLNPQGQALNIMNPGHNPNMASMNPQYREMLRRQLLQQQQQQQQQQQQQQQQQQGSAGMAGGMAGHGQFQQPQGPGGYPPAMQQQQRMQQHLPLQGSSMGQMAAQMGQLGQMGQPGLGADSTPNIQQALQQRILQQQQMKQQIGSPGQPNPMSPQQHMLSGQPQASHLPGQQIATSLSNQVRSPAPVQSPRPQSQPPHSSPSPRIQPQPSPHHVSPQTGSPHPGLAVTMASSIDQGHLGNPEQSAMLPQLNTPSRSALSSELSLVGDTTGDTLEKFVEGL
UniProt Q09472: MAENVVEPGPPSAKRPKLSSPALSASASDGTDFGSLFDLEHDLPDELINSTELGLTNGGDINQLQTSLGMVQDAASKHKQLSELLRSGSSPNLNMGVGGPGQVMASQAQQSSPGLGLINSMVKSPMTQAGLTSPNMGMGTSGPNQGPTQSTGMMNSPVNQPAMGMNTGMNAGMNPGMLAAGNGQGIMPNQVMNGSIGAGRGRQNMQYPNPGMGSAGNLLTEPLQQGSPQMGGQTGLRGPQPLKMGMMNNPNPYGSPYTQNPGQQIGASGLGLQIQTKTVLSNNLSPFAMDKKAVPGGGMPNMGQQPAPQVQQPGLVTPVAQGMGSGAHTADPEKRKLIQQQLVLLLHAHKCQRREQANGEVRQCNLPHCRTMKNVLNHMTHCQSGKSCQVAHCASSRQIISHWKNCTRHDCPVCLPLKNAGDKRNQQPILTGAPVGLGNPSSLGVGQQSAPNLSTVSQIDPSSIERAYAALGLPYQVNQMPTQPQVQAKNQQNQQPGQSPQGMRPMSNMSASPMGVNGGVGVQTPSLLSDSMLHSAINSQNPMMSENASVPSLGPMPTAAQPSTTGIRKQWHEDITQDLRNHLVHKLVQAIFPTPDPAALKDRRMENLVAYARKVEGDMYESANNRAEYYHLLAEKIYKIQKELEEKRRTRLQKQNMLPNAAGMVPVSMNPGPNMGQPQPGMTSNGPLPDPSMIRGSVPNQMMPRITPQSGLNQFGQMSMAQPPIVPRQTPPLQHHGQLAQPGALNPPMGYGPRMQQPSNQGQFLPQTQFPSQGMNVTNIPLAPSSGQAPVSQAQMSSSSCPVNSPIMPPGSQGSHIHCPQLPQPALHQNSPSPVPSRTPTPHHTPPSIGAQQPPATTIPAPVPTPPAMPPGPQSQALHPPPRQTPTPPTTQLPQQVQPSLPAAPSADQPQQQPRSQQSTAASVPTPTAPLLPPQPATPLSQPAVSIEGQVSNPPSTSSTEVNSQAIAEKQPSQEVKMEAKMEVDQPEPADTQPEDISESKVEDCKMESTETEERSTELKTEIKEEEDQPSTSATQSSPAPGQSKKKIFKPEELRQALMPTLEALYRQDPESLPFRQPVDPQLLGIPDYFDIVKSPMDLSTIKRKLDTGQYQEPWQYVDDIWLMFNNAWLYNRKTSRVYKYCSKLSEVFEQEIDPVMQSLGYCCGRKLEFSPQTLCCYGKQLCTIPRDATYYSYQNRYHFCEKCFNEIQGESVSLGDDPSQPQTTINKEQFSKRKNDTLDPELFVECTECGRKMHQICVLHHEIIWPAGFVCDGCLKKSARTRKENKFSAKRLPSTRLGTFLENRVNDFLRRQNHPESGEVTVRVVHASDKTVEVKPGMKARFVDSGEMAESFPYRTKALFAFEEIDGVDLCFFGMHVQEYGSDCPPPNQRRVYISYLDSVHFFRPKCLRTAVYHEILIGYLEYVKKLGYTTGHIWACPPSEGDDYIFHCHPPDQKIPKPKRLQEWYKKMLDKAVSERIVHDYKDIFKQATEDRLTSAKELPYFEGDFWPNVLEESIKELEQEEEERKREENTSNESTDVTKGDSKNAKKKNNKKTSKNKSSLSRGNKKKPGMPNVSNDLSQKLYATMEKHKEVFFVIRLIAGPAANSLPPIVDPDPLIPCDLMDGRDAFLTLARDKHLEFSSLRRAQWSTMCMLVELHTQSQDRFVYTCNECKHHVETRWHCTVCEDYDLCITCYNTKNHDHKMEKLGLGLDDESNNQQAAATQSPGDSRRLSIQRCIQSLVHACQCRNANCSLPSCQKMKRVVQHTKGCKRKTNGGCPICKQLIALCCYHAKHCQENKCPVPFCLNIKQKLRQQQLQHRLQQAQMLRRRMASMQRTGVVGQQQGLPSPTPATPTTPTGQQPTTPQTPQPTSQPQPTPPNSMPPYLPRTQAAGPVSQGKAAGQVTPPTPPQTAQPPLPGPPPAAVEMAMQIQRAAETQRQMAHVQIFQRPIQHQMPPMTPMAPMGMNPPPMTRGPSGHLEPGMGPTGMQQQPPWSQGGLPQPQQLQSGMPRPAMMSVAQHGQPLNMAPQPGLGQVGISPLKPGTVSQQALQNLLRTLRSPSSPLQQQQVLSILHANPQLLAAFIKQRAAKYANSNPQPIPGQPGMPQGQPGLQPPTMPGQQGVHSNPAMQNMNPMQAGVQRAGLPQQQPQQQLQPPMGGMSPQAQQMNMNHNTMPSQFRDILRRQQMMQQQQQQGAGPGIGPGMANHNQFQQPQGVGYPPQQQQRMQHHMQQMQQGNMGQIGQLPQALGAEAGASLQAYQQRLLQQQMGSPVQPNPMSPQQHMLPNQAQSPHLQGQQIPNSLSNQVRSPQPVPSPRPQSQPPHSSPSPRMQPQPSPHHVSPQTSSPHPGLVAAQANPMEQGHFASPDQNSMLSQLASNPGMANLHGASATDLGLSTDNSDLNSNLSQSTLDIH

No constants are given. Whether binding was seen depends on the method and setting. Binding seen in cells or lysates may run through a third protein. Some results given as binding are weak or reduced against the parent protein; the word gives no strength.

Consider “CBP, HEK293T (from UniProt Q92793 1-2442)”, for which the binding entry is given as “binds”.
Next, “p300, HEK293T (from UniProt Q09472 1-2414)”: “binds”.

The values are drawn from doi:10.1101/2021.08.09.455663.
